# Source: the supplement of paper PMC8728848
# The other results are listed elsewhere or left out.
# Columns and labels:
# Assay in all cases: glycan array binding signal (z-score within array); higher = stronger binding
# Settings in all cases: glycan notation: IUPAC condensed, linker removed
# [1] = molecular target: Fuc(a1-2)Gal6S(b1-3)GlcNAc6S
# Summary of the method: (§1)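 Glycan array data were curated from 3228 arrays in the Consortium for Functional Glycomics database and kept only where the protein sequence was available. Glycan names were converted to IUPAC-condensed notation, and columns mapping to the same glycan were averaged. The binding signal is a within-array Z-score, averaged across arrays of the same protein sequence at different concentrations or buffers and across linkers. Negative Z-scores can be read as non-binding.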
# Fuc(a1-2)Gal6S(b1-4)Glc = molecular target: Fuc(a1-2)Gal6S(b1-4)Glc
# Summary of the method: as §1
# [2] = molecular target: Fuc(a1-2)Gal6S(b1-4)Glc6S
# Summary of the method: as §1
# Fuc(a1-2)[Gal(a1-3)]Gal = molecular target: Fuc(a1-2)[Gal(a1-3)]Gal
# Summary of the method: as §1
# [3] = molecular target: Fuc(a1-2)[Gal(a1-3)]Gal(b1-3)GalNAc
# Summary of the method: as §1
# [4] = molecular target: Fuc(a1-2)[Gal(a1-3)]Gal(b1-3)GalNAc(b1-3)Gal(a1-4)Gal(b1-4)Glc
# Summary of the method: as §1
# [5] = molecular target: Fuc(a1-2)[Gal(a1-3)]Gal(b1-3)GlcNAc
# Summary of the method: as §1
# [6] = molecular target: Fuc(a1-2)[Gal(a1-3)]Gal(b1-3)GlcNAc(b1-2)Man(a1-3)[Fuc(a1-2)[Gal(a1-3)]Gal(b1-3)GlcNAc(b1-2)Man(a1-6)]Man(b1-4)GlcNAc(b1-4)GlcNAc
# Summary of the method: as §1
# [7] = molecular target: Fuc(a1-2)[Gal(a1-3)]Gal(b1-3)GlcNAc(b1-2)Man(a1-3)[Fuc(a1-2)[Gal(a1-3)]Gal(b1-3)GlcNAc(b1-2)Man(a1-6)]Man(b1-4)GlcNAc(b1-4)[Fuc(a1-6)]GlcNAc
# Summary of the method: as §1
# [8] = molecular target: Fuc(a1-2)[Gal(a1-3)]Gal(b1-3)GlcNAc(b1-3)GalNAc
# Summary of the method: as §1
# [9] = molecular target: Fuc(a1-2)[Gal(a1-3)]Gal(b1-3)GlcNAc(b1-6)GalNAc
# Summary of the method: as §1
# [10] = molecular target: Fuc(a1-2)[Gal(a1-3)]Gal(b1-4)Glc
# Summary of the method: as §1
# [11] = molecular target: Fuc(a1-2)[Gal(a1-3)]Gal(b1-4)GlcNAc
# Summary of the method: as §1
# [12] = molecular target: Fuc(a1-2)[Gal(a1-3)]Gal(b1-4)GlcNAc(b1-2)Man
# Summary of the method: as §1
# [13] = molecular target: Fuc(a1-2)[Gal(a1-3)]Gal(b1-4)GlcNAc(b1-2)Man(a1-3)[Fuc(a1-2)[Gal(a1-3)]Gal(b1-4)GlcNAc(b1-2)Man(a1-6)]Man(b1-4)GlcNAc(b1-4)GlcNAc
# Summary of the method: as §1
# [14] = molecular target: Fuc(a1-2)[Gal(a1-3)]Gal(b1-4)GlcNAc(b1-2)Man(a1-3)[Fuc(a1-2)[Gal(a1-3)]Gal(b1-4)GlcNAc(b1-2)Man(a1-6)]Man(b1-4)GlcNAc(b1-4)[Fuc(a1-6)]GlcNAc
# Summary of the method: as §1
# [15] = molecular target: Fuc(a1-2)[Gal(a1-3)]Gal(b1-4)GlcNAc(b1-3)GalNAc
# Summary of the method: as §1
# [16] = molecular target: Fuc(a1-2)[Gal(a1-3)]Gal(b1-4)GlcNAc(b1-6)GalNAc
# Summary of the method: as §1
# [17] = molecular target: Fuc(a1-2)[Gal(a1-3)]Gal(b1-4)[Fuc(a1-3)]Glc
# Summary of the method: as §1
# [18] = molecular target: Fuc(a1-2)[Gal(a1-3)]Gal(b1-4)[Fuc(a1-3)]GlcNAc
# Summary of the method: as §1
# [19] = molecular target: Fuc(a1-2)[Gal(a1-3)]Gal(b1-4)[Fuc(a1-3)]GlcNAc(b1-3)GalNAc
# Summary of the method: as §1
# [20] = molecular target: Fuc(a1-2)[Gal(a1-4)]Gal(b1-4)GlcNAc
# Summary of the method: as §1
# [21] = molecular target: Fuc(a1-2)[GalNAc(a1-3)]Gal
# Summary of the method: as §1
# [22] = molecular target: Fuc(a1-2)[GalNAc(a1-3)]Gal(b1-3)GalNAc(a1-3)[Fuc(a1-2)]Gal(b1-4)GlcNAc
# Summary of the method: as §1
# [23] = molecular target: Fuc(a1-2)[GalNAc(a1-3)]Gal(b1-3)GalNAc(b1-3)Gal(a1-4)Gal(b1-4)Glc
# Summary of the method: as §1
# [24] = molecular target: Fuc(a1-2)[GalNAc(a1-3)]Gal(b1-3)GlcNAc
# Summary of the method: as §1
# [25] = molecular target: Fuc(a1-2)[GalNAc(a1-3)]Gal(b1-3)GlcNAc(b1-2)Man(a1-3)[Fuc(a1-2)[GalNAc(a1-3)]Gal(b1-3)GlcNAc(b1-2)Man(a1-6)]Man(b1-4)GlcNAc(b1-4)GlcNAc
# Summary of the method: as §1
# [26] = molecular target: Fuc(a1-2)[GalNAc(a1-3)]Gal(b1-3)GlcNAc(b1-2)Man(a1-3)[Fuc(a1-2)[GalNAc(a1-3)]Gal(b1-3)GlcNAc(b1-2)Man(a1-6)]Man(b1-4)GlcNAc(b1-4)[Fuc(a1-6)]GlcNAc
# Summary of the method: as §1
# [27] = molecular target: Fuc(a1-2)[GalNAc(a1-3)]Gal(b1-3)GlcNAc(b1-3)GalNAc
# Summary of the method: as §1
# [28] = molecular target: Fuc(a1-2)[GalNAc(a1-3)]Gal(b1-3)GlcNAc(b1-6)GalNAc
# Summary of the method: as §1
# [29] = molecular target: Fuc(a1-2)[GalNAc(a1-3)]Gal(b1-4)Glc
# Summary of the method: as §1
# [30] = molecular target: Fuc(a1-2)[GalNAc(a1-3)]Gal(b1-4)GlcNAc
# Summary of the method: as §1
# [31] = molecular target: Fuc(a1-2)[GalNAc(a1-3)]Gal(b1-4)GlcNAc(b1-2)Man
# Summary of the method: as §1
# [32] = molecular target: Fuc(a1-2)[GalNAc(a1-3)]Gal(b1-4)GlcNAc(b1-2)Man(a1-3)[Fuc(a1-2)[GalNAc(a1-3)]Gal(b1-4)GlcNAc(b1-2)Man(a1-6)]Man(b1-4)GlcNAc(b1-4)GlcNAc
# Summary of the method: as §1
# [33] = molecular target: Fuc(a1-2)[GalNAc(a1-3)]Gal(b1-4)GlcNAc(b1-2)Man(a1-3)[Fuc(a1-2)[GalNAc(a1-3)]Gal(b1-4)GlcNAc(b1-2)Man(a1-6)]Man(b1-4)GlcNAc(b1-4)[Fuc(a1-6)]GlcNAc
# Summary of the method: as §1
# [34] = molecular target: Fuc(a1-2)[GalNAc(a1-3)]Gal(b1-4)GlcNAc(b1-3)Gal(b1-4)GlcNAc
# Summary of the method: as §1
# [35] = molecular target: Fuc(a1-2)[GalNAc(a1-3)]Gal(b1-4)GlcNAc(b1-3)Gal(b1-4)GlcNAc(b1-3)Gal(b1-4)GlcNAc
# Summary of the method: as §1
# [36] = molecular target: Fuc(a1-2)[GalNAc(a1-3)]Gal(b1-4)GlcNAc(b1-3)GalNAc
# Summary of the method: as §1
# [37] = molecular target: Fuc(a1-2)[GalNAc(a1-3)]Gal(b1-4)GlcNAc(b1-3)[Fuc(a1-2)[GalNAc(a1-3)]Gal(b1-4)GlcNAc(b1-6)]GalNAc
# Summary of the method: as §1
# [38] = molecular target: Fuc(a1-2)[GalNAc(a1-3)]Gal(b1-4)GlcNAc(b1-6)GalNAc
# Summary of the method: as §1
# [39] = molecular target: Fuc(a1-2)[GalNAc(a1-3)]Gal(b1-4)[Fuc(a1-3)]GlcNAc
# Summary of the method: as §1
# [40] = molecular target: Fuc(a1-2)[GalNAc(a1-3)]Gal(b1-4)[Fuc(a1-3)]GlcNAc(b1-3)GalNAc
# Summary of the method: as §1
# [41] = molecular target: Fuc(a1-2)[GalNAc(a1-4)]Gal(b1-4)GlcNAc
# Summary of the method: as §1
# [42] = molecular target: Fuc(a1-2)[GalNAc(b1-3)]Gal
# Summary of the method: as §1
# Fuc(a1-3)GlcNAc = molecular target: Fuc(a1-3)GlcNAc
# Summary of the method: as §1
binder,measurement,setting,value
HFR-3 (Triticum aestivum) (protein) MKGLLLCALALAFAAVTTHAQLQSCPTRCGKQADGMECPNNLCCSKDGYCGLGVDYCSAGAGCQSGACYDNKICGAQANGTLCRNNHCCSSGGRCGYGREYCSNGCQGGPCWADLKCGHLDNGKLCPNNLCCSQYGYCGLGPEFCGTGCQNGACSTDKPCGNKANGAPCTNNYCCSQYGSCGLGKDYCGTGCQNGACN,glycan array binding signal (z-score),[1],-0.575
same,glycan array binding signal (z-score),Fuc(a1-2)Gal6S(b1-4)Glc,-0.893
same,glycan array binding signal (z-score),[2],-0.695
same,glycan array binding signal (z-score),Fuc(a1-2)[Gal(a1-3)]Gal,0.031
same,glycan array binding signal (z-score),[3],-0.263
same,glycan array binding signal (z-score),[4],-1.19
same,glycan array binding signal (z-score),[5],0.236
same,glycan array binding signal (z-score),[6],0.149
same,glycan array binding signal (z-score),[7],-0.984
same,glycan array binding signal (z-score),[8],-0.604
same,glycan array binding signal (z-score),[9],-0.039
same,glycan array binding signal (z-score),[10],0.055
same,glycan array binding signal (z-score),[11],0.097
same,glycan array binding signal (z-score),[12],0.323
same,glycan array binding signal (z-score),[13],1.04
same,glycan array binding signal (z-score),[14],0.362
same,glycan array binding signal (z-score),[15],-0.757
same,glycan array binding signal (z-score),[16],-1.13
same,glycan array binding signal (z-score),[17],-0.547
same,glycan array binding signal (z-score),[18],-0.831
same,glycan array binding signal (z-score),[19],0.903
same,glycan array binding signal (z-score),[20],-1.66
same,glycan array binding signal (z-score),[21],-0.243
same,glycan array binding signal (z-score),[22],-0.516
same,glycan array binding signal (z-score),[23],-1.32
same,glycan array binding signal (z-score),[24],-0.435
same,glycan array binding signal (z-score),[25],-0.138
same,glycan array binding signal (z-score),[26],-1.12
same,glycan array binding signal (z-score),[27],-0.043
same,glycan array binding signal (z-score),[28],0.01
same,glycan array binding signal (z-score),[29],-0.076
same,glycan array binding signal (z-score),[30],0.093
same,glycan array binding signal (z-score),[31],-0.95
same,glycan array binding signal (z-score),[32],-0.537
same,glycan array binding signal (z-score),[33],-0.517
same,glycan array binding signal (z-score),[34],-0.377
same,glycan array binding signal (z-score),[35],-0.16
same,glycan array binding signal (z-score),[36],-1.3
same,glycan array binding signal (z-score),[37],-0.196
same,glycan array binding signal (z-score),[38],-0.396
same,glycan array binding signal (z-score),[39],-0.585
same,glycan array binding signal (z-score),[40],-0.102
same,glycan array binding signal (z-score),[41],-0.421
same,glycan array binding signal (z-score),[42],0.855
same,glycan array binding signal (z-score),Fuc(a1-3)GlcNAc,-0.336

# Ten entries from above, with tabs.
binder	measurement	setting	value
HFR-3 (Triticum aestivum) (protein) MKGLLLCALALAFAAVTTHAQLQSCPTRCGKQADGMECPNNLCCSKDGYCGLGVDYCSAGAGCQSGACYDNKICGAQANGTLCRNNHCCSSGGRCGYGREYCSNGCQGGPCWADLKCGHLDNGKLCPNNLCCSQYGYCGLGPEFCGTGCQNGACSTDKPCGNKANGAPCTNNYCCSQYGSCGLGKDYCGTGCQNGACN	glycan array binding signal (z-score)	[5]	0.236
same	glycan array binding signal (z-score)	[6]	0.149
same	glycan array binding signal (z-score)	[7]	-0.984
same	glycan array binding signal (z-score)	[8]	-0.604
same	glycan array binding signal (z-score)	[9]	-0.039
same	glycan array binding signal (z-score)	[10]	0.055
same	glycan array binding signal (z-score)	[11]	0.097
same	glycan array binding signal (z-score)	[12]	0.323
same	glycan array binding signal (z-score)	[13]	1.04
same	glycan array binding signal (z-score)	[14]	0.362
